# From PubChem BioAssay AID624291 (National Center for Advancing Translational Sciences (NCATS), 2012)
# Out of some 350,000 compounds screened, about 220 (0.063%) were called active. The inconclusive results got no clear call from the source; some entries with a clear call stand among them for comparison. Calls follow the shape of the dose curve; as a rule, active = well fitted activation curve with a large enough effect; inconclusive = small, poorly fitted or top-dose-only effect; inactive = no such curve, though single readings can be large or run the other way. A potency beside an inconclusive call is a rough fit, not a confirmed value.
# Assay: qHTS for Activators of Integrin-Mediated Alleviation for Muscular Dystrophy; also: nearly all actives have a fitted effect of over 60% in size;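 as to activation: 100% = response of the positive control SU9516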
# Details: alpha7betagal myoblasts, beta-gal FDG fluorescence, 48 h; activation: at 38.3 µM (top of the series)
# Method in brief: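 Alpha7betagal+/- myoblasts (passage 13) were plated 16-24 hr, then exposed to compounds (1:260 dilution of DMSO stock) for 48 hours at 37C. After MPER lysis, β-galactosidase reporter activity was read as FDG fluorescence (ex 480/em 540) after 30 minutes.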
# Potency is read from the fitted curve at half-maximal effect.
Compound,Potency,activation
CCN(CC)CCNC(=O)c1ccc(NC(=O)COc2ccccc2F)cc1,"inconclusive: 11.2 µM [activator, single point]",–
CC(=O)Nc1ccc(NC(=O)C2CCCN2C(=O)Nc2ccc(F)cc2)cc1 (configuration not stated),"inconclusive: 2.51 µM [activator, full curve, poor fit]",–
CC(c1ccncn1)N(C)Cc1nc(-c2ccc(C(F)(F)F)cc2)no1 (configuration not stated),"inconclusive: 28.2 µM [activator, single point]",–
COc1ccc(NC(=O)CSc2nc(C)cs2)c([N+](=O)[O-])c1,inactive,–
O=C(Cn1nc(-c2ccccc2)ccc1=O)NCCCN1CCOCC1,"inconclusive: 1.58 µM [activator, single point]",–
Cc1ccn(-c2cc(O)c(-n3ccc(C)n3)cc2O)n1,inactive,–
COc1ccc(CN2CCC(N3CCC(C(=O)N4CCOCC4)CC3)CC2)c(F)c1,inactive,–
O=C(NCCc1ccccc1)C1CCCN(c2cnccn2)C1 (configuration not stated),"inconclusive: 10 µM [activator, single point]",–
Cc1ccc(C)c(-n2nnnc2Sc2nc([N+](=O)[O-])nn2C)c1,inactive,–
O=C(Nc1ccccc1)C(c1ccccc1)C1CCCC1 (configuration not stated),"inconclusive: 15.8 µM [activator, single point]",–
Cc1cc(NC(=O)CN2CCCCC2)no1,inactive,–
CCCN(CCC)CCNC(=O)C1(O)c2ccccc2NC(=O)N1c1cccc(OC)c1 (configuration not stated),"inconclusive: 2.82 µM [activator, partial curve, poor fit]",–
CCC(=O)Nc1cccc(C(=O)N(Cc2ccccc2)Cc2ccccc2)c1,inactive,–
Cc1cccc(C)c1NC(=O)CNC(=O)Cc1ccc(Br)cc1,"inconclusive: 1 µM [activator, full curve, poor fit]",–
COc1ccc(/C=C(/C(=O)c2cccs2)N2C=CC=CC2=C(C#N)C#N)cc1,inactive,–
Cc1c(Cl)cccc1NC(=O)COC(=O)C12CC3CC(CC(O)(C3)C1)C2,"inconclusive: 2.24 µM [activator, single point]",–
N#C/C(=C/c1ccc(N2CCOCC2)o1)c1nc2ccccc2[nH]1,inactive,–
Cc1ccc(NC(=O)CCC(=O)N/N=C/c2ccc(O)cc2)cc1,"inconclusive: 11.2 µM [activator, single point]",–
Cn1c(CN2CCOCC2)nnc1SCC(=O)Nc1cc(Cl)ccc1Cl,"inconclusive: 2.82 µM [activator, partial curve, poor fit]",–
c1ccc2nc(-c3ccc(-n4ccnc4)cc3)ccc2c1,"inconclusive: 28.2 µM [activator, single point]",–
COc1ccc(C(=O)COC(=O)C2CCC(=O)N2)cc1 (configuration not stated),"inconclusive: 10 µM [activator, partial curve, poor fit]",–
O=C(/C=C/c1ccco1)NC(=S)Nc1nc(-c2ccc(Cl)cc2)cs1,inactive,–
Cc1ccc2c(c1)N(C(=O)CCC(=O)NCc1ccccc1)CC(C)O2 (configuration not stated),"inconclusive: 14.1 µM [activator, single point]",–
N=C1/C(=C\c2ccc(OC(=O)c3ccc(F)cc3)cc2)C(=O)N=C2SC(N3CCOCC3)=NN12,"inconclusive: 28.2 µM [activator, single point]",–

Compound,Potency,activation
Cc1c(C)c(C)c(C(=O)C2CCN(c3ccc([N+](=O)[O-])cn3)CC2)c(C)c1C,inactive,–
COc1ccccc1C(=O)Nc1cc2c(cc1C(=O)O)OCCCO2,"inconclusive: 3.16 µM [activator, single point]",–
Cn1c(SCc2ccc(F)cc2)nnc1-c1cccs1,–,inactive: 20.9% [at 7.66 µM]
COC(=O)c1ccc(OCCN2CCCCCC2)cc1,inactive,–
Cc1nn(CC(=O)N2CCCC2)c(=O)c2nn(-c3ccccc3)c(C)c12,"inconclusive: 5.01 µM [activator, single point]",–
COc1ccc(CNC(=O)CN2C(=O)COc3ccc(S(=O)(=O)NC4CCCC4)cc32)cc1,"inconclusive: 3.16 µM [activator, full curve, poor fit]",–
CC12CCC(C/C1=N\N=C1\NC(=O)/C(=C\c3ccc(Cl)cc3)S1)C2(C)C (configuration not stated),inactive,–
O=[N+]([O-])c1ccc(-c2nn(-c3ccccc3)cc2/C=N/n2c(-c3cccs3)n[nH]c2=S)cc1,"inconclusive: 0.794 µM [activator, single point]",–
COc1ccc(/C(C)=N/OCC(=O)N=Nc2c(O)[nH]c3ccccc23)cc1,"inconclusive: 28.2 µM [activator, partial curve, poor fit]",–
Cc1nnc(CN(C)C(=O)c2cc(COc3ccc(F)cc3Cl)on2)o1,"inconclusive: 7.94 µM [activator, partial curve, poor fit]",–
O=C(CCC1CCN(Cc2ccccc2Cl)CC1)NC1CC1,"inconclusive: 4.47 µM [activator, single point]",–
COC(=O)c1c(N)sc(C(=O)NCCc2ccccc2)c1C,inactive,–
CC1CC(C)CN(S(=O)(=O)c2ccc(C(=O)Nc3sccc3C(N)=O)cc2)C1 (configuration not stated),inactive,–
COc1ccc(S(=O)(=O)N2CCN(C/C=C/c3ccccc3)CC2)cc1F,"inconclusive: 2.82 µM [activator, partial curve, poor fit]",–
COc1ccc(OC)c(-c2cc(C(=O)Nc3c(C)nn(Cc4ccccc4)c3C)no2)c1,inactive,–
O=C(O)c1cn(-c2ccc(N3CCCC3)c(F)c2)c2c(F)c(F)c(F)cc2c1=O,"inconclusive: 0.794 µM [activator, full curve, poor fit]",–
CCC(C)c1ccc(O)c(NC(=O)c2cccnc2)c1 (configuration not stated),inactive,–
O=C(NCCO)c1cc([N+](=O)[O-])cc2c1C=Cc1ccccc1O2,"inconclusive: 20 µM [activator, single point]",–
CN(C)CCNC(=O)Nc1ccc([N+](=O)[O-])cc1,inactive,–
COc1cccc(CN(C)C(=O)CSCC(=O)Nc2cccc(C)c2)c1OC,"inconclusive: 28.2 µM [activator, single point]",–
O=C(NC(=S)Nc1ccc(Oc2ccccc2)cc1)c1ccc(Cl)cc1,inactive,–
COc1ccc(C(=O)NCC(=O)OCC(=O)c2ccc3c(c2)OCCO3)cc1,inactive,–
Nn1c(-c2cccc([N+](=O)[O-])c2)nc2ccccc2c1=O,"inconclusive: 1.78 µM [activator, partial curve, poor fit]",–
Cc1cc(OCCn2cnc3ccccc3c2=O)cc(C(C)C)c1,inactive,–

# Record cards (already shown):
# COc1cccc(CN(C)C(=O)CSCC(=O)Nc2cccc(C)c2)c1OC reads Potency: inconclusive: 28.2 µM [activator, single point]
# O=C(CCC1CCN(Cc2ccccc2Cl)CC1)NC1CC1 reads Potency: inconclusive: 4.47 µM [activator, single point]
# COC(=O)c1ccc(OCCN2CCCCCC2)cc1 reads Potency: inactive
# O=[N+]([O-])c1ccc(-c2nn(-c3ccccc3)cc2/C=N/n2c(-c3cccs3)n[nH]c2=S)cc1 reads Potency: inconclusive: 0.794 µM [activator, single point]

# Going on with the list:

Compound,Potency,activation
O=c1[nH]c(SCc2c(Cl)cccc2Cl)nc2ccccc12,"inconclusive: 11.2 µM [activator, single point]",–
N#CC(=C(O)COC(=O)CCC1CCCCC1)c1nc2ccccc2[nH]1,inactive,–
COc1cc2[nH]c3c(N4CCN(c5ccc(Cl)cc5)CC4)ncnc3c2cc1OC,inactive,–
COc1ccc(C)cc1S(=O)(=O)NCC(c1cccnc1)N1CCc2ccccc2C1 (configuration not stated),"inconclusive: 25.1 µM [activator, single point]",–
Cn1nnnc1SCC(=O)N1CCN(c2ccc(Cl)cc2)CC1,inactive,–
Cc1nc2scc(C)n2c(=O)c1S(=O)(=O)NCc1ccccc1Cl,"inconclusive: 5.01 µM [activator, single point]",–
CC(OC(=O)c1nc(Cl)ccc1Cl)C(=O)c1ccccc1 (configuration not stated),"inconclusive: 5.01 µM [activator, single point]",–
COc1cccc(S(=O)(=O)c2nc(C)c3c(n2)CCC3)c1,"inconclusive: 12.6 µM [activator, single point]",–
Cc1onc(-c2ccccc2)c1C(=O)N1CCCC(C(F)(F)F)C1 (configuration not stated),"inconclusive: 2.82 µM [activator, single point]",–
CCN(C(=O)COC(=O)c1c(C)noc1C)C1CCS(=O)(=O)C1 (configuration not stated),inactive,–
Cn1c(SCC(=O)NC2CC2)nnc1C1CC1,"inconclusive: 22.4 µM [activator, single point]",–
Cn1cnc(S(=O)(=O)N2CCN(c3ccc(F)cc3)CC2)c1,"inconclusive: 5.01 µM [activator, single point]",–
COc1ccc(C(=O)/C=C/c2ccccc2C(F)(F)F)cc1,inactive,–
Cc1ccc(C(=O)OC/C(O)=C(\C#N)c2nc3ccccc3[nH]2)cc1S(=O)(=O)N1CCOCC1,inactive,–
O=C(N/N=C/C=C/c1ccccc1)c1ccccn1,"inconclusive: 5.01 µM [activator, single point]",–
O=S(=O)(Nn1cnnc1)c1ccc2ccccc2c1,"inconclusive: 10 µM [activator, partial curve, poor fit]",–
Cc1onc(-c2ccccc2)c1C(=O)N1CCN(Cc2ccc3c(c2)OCO3)CC1,"inconclusive: 28.2 µM [activator, single point]",–
O=[N+]([O-])c1ccc(-n2nncc2-c2ccccc2)cc1,"inconclusive: 5.01 µM [activator, single point]",–
Cc1nc(N)c(C#N)c(-c2ccc3c(c2)OCO3)c1C,"inconclusive: 28.2 µM [activator, single point]",–
CCc1nnc(NC(=O)c2cc(-c3ccc(C)o3)nc3ccccc23)s1,inactive,–
CN(C)c1nc(-c2cccs2)cc(C(F)(F)F)c1C#N,"inconclusive: 3.55 µM [activator, single point]",–
O=C(CC(=O)Nc1cc(Cl)ccc1Cl)Nc1cc(Cl)ccc1Cl,"inconclusive: 1.41 µM [activator, full curve, poor fit]",–
N#Cc1nc(COc2ccccc2Cl)oc1N1CCCC1,"inconclusive: 14.1 µM [activator, single point]",–
O=C(Nc1ccc2c(c1)CCC2)c1ncoc1-c1ccccc1F,"inconclusive: 3.98 µM [activator, single point]",–
